Data: PubChem BioAssay AID248 (DTP/NCI, 2004)
The list is a part of this screen's results and no random one: it covers a few groups of compounds. Not every dose and run of a compound is shown. T/C is the treated group as % of the vehicle group. Some doses have a count of surviving animals in place of a T/C: the source holds a T/C of zero for them, seemingly a mark for toxic or unscored doses. Some survivor counts are full or nearly so, which does not show that the dose was tolerated: the source hardly ever lists a survival T/C far under the control, and the zero likely stands for such cases as well. Survivors were counted at the toxicity check, usually on the fifth day, unless a day is given; later deaths do not show. Schedules are NCI's codes, taken here to give the interval after Q, in days (D) or hours (H), and the number of doses after X. Some metal complexes and salts are drawn in pieces, as in the source, so charges may not balance. Where survival is the endpoint, this PubChem deposit counts one and a half times the control or more as active, and values a quarter to a half above the control carry no call in these data; other NCI protocols may use other cut-offs. Some entries hold several experiments; their values stand side by side, smallest first. Some schedules carry Z or #; the key to these is not given. Some entries show no survivor count and are marked so; the dose need not have been tolerated. Some T/C values are followed by the survivors on the day toxicity was checked, most often the fifth; without a count or a note in brackets, all were alive then.

System: L1210 leukemia ip in BDF1 mice, survival T/C
Assay: NCI In Vivo Anticancer Drug Screen. Data for tumor model L1210 Leukemia (intraperitoneal) in B6D2F1 (BDF1) mice
Conditions: T/C endpoint: mean survival time, higher T/C = longer survival
[1] = dose: 200.0 mg/kg/injection, schedule: Q01DX001 (ip), vehicle: other
[2] = dose: 300.0 mg/kg/injection, schedule: Q01DX001 (ip), vehicle: other
[3] = dose: 25.0 mg/kg/injection, schedule: Q04DX003 (ip), vehicle: Klucel (hydroxypropylcellulose) (HPC)
[4] = dose: 50.0 mg/kg/injection, schedule: Q04DX003 (ip), vehicle: Klucel (hydroxypropylcellulose) (HPC)
[5] = dose: 100.0 mg/kg/injection, schedule: Q04DX003 (ip), vehicle: Klucel (hydroxypropylcellulose) (HPC)
[6] = dose: 100.0 mg/kg/injection, schedule: Q01DX009 (ip), vehicle: saline
[7] = dose: 100.0 mg/kg/injection, schedule: Q04DX003 (ip), vehicle: saline
[8] = dose: 200.0 mg/kg/injection, schedule: Q01DX009 (ip), vehicle: saline
[9] = dose: 200.0 mg/kg/injection, schedule: Q04DX003 (ip), vehicle: saline
[10] = dose: 100.0 mg/kg/injection, schedule: Q01DX001 (ip), vehicle: DMSO

SMILES: COc1c(OC)c2c(C)c3ccccc3c(C)c2c2ccccc12.O=C1c2cc([N+](=O)[O-])ccc2-c2c1cc([N+](=O)[O-])cc2[N+](=O)[O-]
- T/C (dose: 100.0 mg/kg/injection, schedule: Q01DX001 (ip), vehicle: saline with Tween-80): 89 % of control
- survivor count (dose: 200.0 mg/kg/injection, schedule: Q01DX001 (ip), vehicle: saline with Tween-80): 6 of 6
- T/C (dose: 400.0 mg/kg/injection, schedule: Q01DX001 (ip), vehicle: saline with Tween-80): 88 % of control

SMILES: C=CC1CN2CCC1CC2C(O)c1ccnc2ccc(OC)cc12.O=C(O)c1c([N+](=O)[O-])cc([N+](=O)[O-])c(-c2c([N+](=O)[O-])cc([N+](=O)[O-])c(C(=O)O)c2[N+](=O)[O-])c1[N+](=O)[O-]
- T/C (dose: 100.0 mg/kg/injection, schedule: Q01DX001 (ip), vehicle: Klucel (hydroxypropylcellulose) (HPC)): 103 % of control
- T/C (dose: 200.0 mg/kg/injection, schedule: Q01DX001 (ip), vehicle: Klucel (hydroxypropylcellulose) (HPC)): 92 % of control
- T/C (dose: 400.0 mg/kg/injection, schedule: Q01DX001 (ip), vehicle: Klucel (hydroxypropylcellulose) (HPC)): 92 % of control

SMILES: NC(=O)c1cn[nH]c1/N=N/N(CCCl)CCCl
- survivor count (dose: 67.0 mg/kg/injection, schedule: Q01DX009 (ip), vehicle: other): 6 of 6
- T/C (dose: 67.75 mg/kg/injection, schedule: Q01DX009 (ip), vehicle: saline with Tween-80): 103 % of control
- survivor count (dose: 75.0 mg/kg/injection, schedule: Q01DX001 (ip), vehicle: other): 6 of 6
- T/C (dose: 88.0 mg/kg/injection, schedule: Q01DX009 (ip), vehicle: other): 113 % of control
- survivor count (dose: 100.0 mg/kg/injection, schedule: Q01DX009 (ip), vehicle: other): 6 of 6
- T/C (dose: 132.0 mg/kg/injection, schedule: Q01DX001 (ip), vehicle: other): 113 % of control
- T/C (dose: 132.0 mg/kg/injection, schedule: Q01DX009 (ip), vehicle: other): 130 % of control
- T/C (dose: 135.5 mg/kg/injection, schedule: Q01DX009 (ip), vehicle: saline with Tween-80): 122 % of control
- survivor count (dose: 150.0 mg/kg/injection, schedule: Q01DX001 (ip), vehicle: other): 6 of 6
- T/C (dose: 150.0 mg/kg/injection, schedule: Q01DX009 (ip), vehicle: other): 134 % of control
- T/C [1]: 110 % of control
- T/C (dose: 200.0 mg/kg/injection, schedule: Q01DX009 (ip), vehicle: other): 140 % of control [5 of 6 alive]
- T/C (dose: 271.0 mg/kg/injection, schedule: Q01DX009 (ip), vehicle: saline with Tween-80): 148 % of control
- T/C [2]: 121 % of control
- survivor count [2]: 6 of 6
- T/C (dose: 300.0 mg/kg/injection, schedule: Q01DX009 (ip), vehicle: other): 178 and 196 % of control
- T/C (dose: 450.0 mg/kg/injection, schedule: Q01DX001 (ip), vehicle: other): 130 % of control
- T/C (dose: 450.0 mg/kg/injection, schedule: Q01DX009 (ip), vehicle: other): 190 % of control [5 of 6 alive]

SMILES: CCOC(=O)C(C)Oc1c([N+](=O)[O-])cc([N+](=O)[O-])cc1[N+](=O)[O-] (configuration not stated)
- T/C (dose: 25.0 mg/kg/injection, schedule: Q01DX009 (ip), vehicle: Klucel (hydroxypropylcellulose) (HPC)): 95 % of control
- T/C [3]: 102 % of control
- T/C (dose: 50.0 mg/kg/injection, schedule: Q01DX009 (ip), vehicle: Klucel (hydroxypropylcellulose) (HPC)): 93 % of control
- T/C [4]: 91 % of control
- T/C (dose: 100.0 mg/kg/injection, schedule: Q01DX009 (ip), vehicle: Klucel (hydroxypropylcellulose) (HPC)): 95 % of control
- T/C [5]: 100 and 102 % of control
- survivor count (dose: 200.0 mg/kg/injection, schedule: Q04DX003 (ip), vehicle: Klucel (hydroxypropylcellulose) (HPC)): 6 of 6
- survivor count (dose: 400.0 mg/kg/injection, schedule: Q04DX003 (ip), vehicle: Klucel (hydroxypropylcellulose) (HPC)): 6 of 6

SMILES: O=C1C(F)=C(NCCCl)C(=O)C(F)=C1NCCCl
- T/C (dose: 3.12 mg/kg/injection, schedule: Q04DX003 (ip), vehicle: Klucel (hydroxypropylcellulose) (HPC)): 101 % of control
- T/C (dose: 6.25 mg/kg/injection, schedule: Q04DX003 (ip), vehicle: Klucel (hydroxypropylcellulose) (HPC)): 95 % of control
- T/C (dose: 12.5 mg/kg/injection, schedule: Q04DX003 (ip), vehicle: Klucel (hydroxypropylcellulose) (HPC)): 95 % of control
- T/C [3]: 95 % of control
- T/C [4]: 95 % of control
- T/C [5]: 95 % of control
- T/C (dose: 150.0 mg/kg/injection, schedule: Q04DX003 (ip), vehicle: Klucel (hydroxypropylcellulose) (HPC)): 101 % of control
- T/C (dose: 225.0 mg/kg/injection, schedule: Q04DX003 (ip), vehicle: Klucel (hydroxypropylcellulose) (HPC)): 95 % of control
- T/C (dose: 335.0 mg/kg/injection, schedule: Q04DX003 (ip), vehicle: Klucel (hydroxypropylcellulose) (HPC)): 100 % of control

SMILES: O=P(Cl)(NC12CC3CC(CC(C3)C1)C2)c1ccccc1 (configuration not stated)
- T/C (dose: 75.0 mg/kg/injection, schedule: Q01DX009 (ip), vehicle: Klucel (hydroxypropylcellulose) (HPC)): 91 % of control
- survivor count (dose: 150.0 mg/kg/injection, schedule: Q01DX009 (ip), vehicle: Klucel (hydroxypropylcellulose) (HPC)): 6 of 6
- survivor count (dose: 300.0 mg/kg/injection, schedule: Q01DX009 (ip), vehicle: Klucel (hydroxypropylcellulose) (HPC)): 4 of 6

SMILES: CN(C)[P+](N)(N(C)C)N(C)C.F[P-](F)(F)(F)(F)F
- T/C (dose: 100.0 mg/kg/injection, schedule: Q01DX001 (ip), vehicle: other): 93 % of control
- T/C [1]: 107 % of control
- survivor count (dose: 400.0 mg/kg/injection, schedule: Q01DX001 (ip), vehicle: other): 1 of 6

SMILES: CCCN(CCC)CCO
- T/C (dose: 50.0 mg/kg/injection, schedule: Q01DX009 (ip), vehicle: saline): 95 % of control [survivor count not shown]
- T/C [6]: 92 % of control [survivor count not shown]
- T/C [7]: 96 % of control [survivor count not shown]
- T/C [8]: 99 % of control [survivor count not shown]
- T/C [9]: 102 % of control [survivor count not shown]

SMILES: CC(=O)N(CCCl)CCCl
- T/C [6]: 101 % of control
- T/C [7]: 117 % of control
- survivor count [8]: 4 of 6
- T/C [9]: 117 % of control
- survivor count (dose: 400.0 mg/kg/injection, schedule: Q01DX009 (ip), vehicle: saline): 0 of 6
- T/C (dose: 400.0 mg/kg/injection, schedule: Q04DX003 (ip), vehicle: saline): 114 % of control

SMILES: O=P(Cl)(NCCCl)N(CCCl)CCCl (configuration not stated)
- T/C (dose: 25.0 mg/kg/injection, schedule: Q01DX001 (ip), vehicle: DMSO): 134 % of control
- T/C (dose: 50.0 mg/kg/injection, schedule: Q01DX001 (ip), vehicle: DMSO): 123 % of control
- T/C [10]: 95 % of control [4 of 6 alive]
- survivor count [10]: 4 of 6
- survivor count (dose: 200.0 mg/kg/injection, schedule: Q01DX001 (ip), vehicle: DMSO): 0 of 6
- survivor count (dose: 400.0 mg/kg/injection, schedule: Q01DX001 (ip), vehicle: DMSO): 0 of 6

SMILES: CC1=NCCN(C)CCN(C)CCN=C(C)C1.F[P-](F)(F)(F)(F)F.[Ni+2]
- T/C (dose: 25.0 mg/kg/injection, schedule: Q01DX001 (ip), vehicle: saline): 102 % of control
- T/C (dose: 50.0 mg/kg/injection, schedule: Q01DX001 (ip), vehicle: saline): 95 % of control
- survivor count (dose: 100.0 mg/kg/injection, schedule: Q01DX001 (ip), vehicle: saline): 0 of 3
- survivor count (dose: 200.0 mg/kg/injection, schedule: Q01DX001 (ip), vehicle: saline): 0 of 3

SMILES: ClCCN1CSc2ccccc21
- T/C (dose: 3.0 mg/kg/injection, schedule: Q01DX Z (ip), vehicle: saline): 92 % of control [5 of 6 alive]
- T/C (dose: 10.0 mg/kg/injection, schedule: Q01DX Z (ip), vehicle: saline): 97 % of control
- T/C (dose: 30.0 mg/kg/injection, schedule: Q01DX Z (ip), vehicle: saline): 106 % of control
- T/C (dose: 100.0 mg/kg/injection, schedule: Q01DX Z (ip), vehicle: saline): 97 % of control
